The target in the assay is T1, human KLRG1, plate-coated (Example 21) (human) (UniProt Q96E93).
T1 sequence (looked up): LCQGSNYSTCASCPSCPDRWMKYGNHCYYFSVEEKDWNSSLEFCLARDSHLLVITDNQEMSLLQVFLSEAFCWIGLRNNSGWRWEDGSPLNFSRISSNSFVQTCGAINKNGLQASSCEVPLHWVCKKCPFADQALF
Kind of assay: ELISA (figure legend). In general terms: In an ELISA, binding on a coated surface is turned into a signal by an enzyme label.

Sequences of proteins named here, by UniProt entry; tags and fusion partners are left off. A change or cut given only in a name is not applied to a line headed by its entry.
UniProt P12830: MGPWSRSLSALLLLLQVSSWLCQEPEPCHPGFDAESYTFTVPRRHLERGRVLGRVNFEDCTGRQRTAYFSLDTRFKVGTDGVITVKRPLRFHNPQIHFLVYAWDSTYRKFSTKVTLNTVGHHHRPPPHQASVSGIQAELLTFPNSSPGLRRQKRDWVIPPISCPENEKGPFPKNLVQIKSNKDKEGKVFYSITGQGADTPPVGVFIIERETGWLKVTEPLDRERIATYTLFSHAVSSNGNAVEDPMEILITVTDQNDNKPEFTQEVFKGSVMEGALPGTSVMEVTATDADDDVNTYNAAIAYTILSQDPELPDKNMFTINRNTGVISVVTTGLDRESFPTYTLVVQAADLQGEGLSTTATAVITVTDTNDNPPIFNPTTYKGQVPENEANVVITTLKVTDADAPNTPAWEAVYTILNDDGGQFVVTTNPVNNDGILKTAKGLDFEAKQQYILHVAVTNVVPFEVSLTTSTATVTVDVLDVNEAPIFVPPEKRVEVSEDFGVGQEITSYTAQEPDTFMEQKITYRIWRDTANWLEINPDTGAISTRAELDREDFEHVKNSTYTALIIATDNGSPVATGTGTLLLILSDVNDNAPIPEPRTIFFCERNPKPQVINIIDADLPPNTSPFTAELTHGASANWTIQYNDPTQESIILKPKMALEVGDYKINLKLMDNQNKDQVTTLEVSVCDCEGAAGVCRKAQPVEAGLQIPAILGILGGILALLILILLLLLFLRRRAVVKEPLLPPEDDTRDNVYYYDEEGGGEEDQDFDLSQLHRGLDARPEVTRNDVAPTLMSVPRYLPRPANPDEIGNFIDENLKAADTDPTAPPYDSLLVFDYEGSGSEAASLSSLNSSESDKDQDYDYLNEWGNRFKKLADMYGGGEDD

The results in this text go back to US20190292264A1.

No constants are given. Whether binding was seen depends on the method and setting. Some entries that bind do so weakly or less than the wild type.

As to “recombinant soluble human E-cadherin (from UniProt P12830 155-709) (ligand)”, the binding result was “binds”.
